This is one part of the list.
How the values were obtained:
Assay in all cases: log2 fold change, soluble protein after heating vs DMSO (PISA); higher = thermal stabilisation; K562 cells, 10 uM, 30 min; active = over 0.2 and 3.5 SD of the protein, either way, in both replicates (recomputed)
[1] = compound: CS(=O)(=O)c1ccc(-c2cnc(N)c(C(=O)Nc3ccccc3)n2)cc1
In short: (§1)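 Thermal stability values are relative to control samples and come from duplicates. They are expressed as log2 fold changes. For measurement, K562 cells (2×10^6 cells/mL) received 10 μM compound for 30 min, and aliquots were heated for 3 min over 48°C-58°C, pooled, and extracted at 4°C in PBS with 0.5% NP-40. Soluble protein, the supernatant after 21,000xg for 90 min, was quantified by TMTpro 16plex LC-MS/MS with equalised channel sums.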

Amino acid sequences for entries named in this document (tags omitted). A change or cut given only in a name is not applied to a line headed by its entry.
UniProt P42773: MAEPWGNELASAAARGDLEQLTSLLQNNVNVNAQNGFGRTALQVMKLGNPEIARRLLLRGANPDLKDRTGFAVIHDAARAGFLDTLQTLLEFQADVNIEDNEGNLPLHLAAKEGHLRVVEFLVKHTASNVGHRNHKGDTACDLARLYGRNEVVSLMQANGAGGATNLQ
UniProt Q9H3Q1: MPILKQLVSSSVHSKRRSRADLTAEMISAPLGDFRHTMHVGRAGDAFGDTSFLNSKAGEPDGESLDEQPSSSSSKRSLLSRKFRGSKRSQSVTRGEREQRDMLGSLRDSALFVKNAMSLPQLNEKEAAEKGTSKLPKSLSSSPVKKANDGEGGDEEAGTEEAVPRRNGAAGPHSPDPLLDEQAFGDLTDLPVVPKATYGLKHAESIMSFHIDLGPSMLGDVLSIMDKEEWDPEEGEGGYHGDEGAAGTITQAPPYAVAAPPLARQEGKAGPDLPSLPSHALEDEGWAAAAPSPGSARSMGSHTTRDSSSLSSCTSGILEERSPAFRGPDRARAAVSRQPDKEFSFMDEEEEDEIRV
UniProt P11802: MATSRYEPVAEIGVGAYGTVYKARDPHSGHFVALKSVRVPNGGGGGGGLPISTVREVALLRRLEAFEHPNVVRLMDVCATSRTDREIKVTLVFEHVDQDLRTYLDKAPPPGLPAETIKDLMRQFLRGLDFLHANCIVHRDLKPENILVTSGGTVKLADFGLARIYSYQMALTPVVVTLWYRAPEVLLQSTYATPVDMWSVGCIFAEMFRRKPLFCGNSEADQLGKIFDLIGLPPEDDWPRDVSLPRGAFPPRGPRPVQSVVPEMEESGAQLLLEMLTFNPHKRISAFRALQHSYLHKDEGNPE
UniProt Q9BWU1: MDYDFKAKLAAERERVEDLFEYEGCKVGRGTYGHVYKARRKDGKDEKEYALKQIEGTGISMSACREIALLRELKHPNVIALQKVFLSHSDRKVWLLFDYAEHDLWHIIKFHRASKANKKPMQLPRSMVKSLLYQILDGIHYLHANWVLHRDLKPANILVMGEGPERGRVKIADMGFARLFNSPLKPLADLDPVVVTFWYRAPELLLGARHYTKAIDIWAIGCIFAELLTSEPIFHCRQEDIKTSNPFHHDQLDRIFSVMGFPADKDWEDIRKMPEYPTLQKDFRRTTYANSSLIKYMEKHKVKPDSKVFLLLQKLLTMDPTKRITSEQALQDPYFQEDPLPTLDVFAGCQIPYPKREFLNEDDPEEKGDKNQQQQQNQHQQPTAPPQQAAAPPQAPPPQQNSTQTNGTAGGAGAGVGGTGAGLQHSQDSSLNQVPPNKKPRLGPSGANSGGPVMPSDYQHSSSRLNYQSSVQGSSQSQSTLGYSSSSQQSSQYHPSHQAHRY
UniProt P21127: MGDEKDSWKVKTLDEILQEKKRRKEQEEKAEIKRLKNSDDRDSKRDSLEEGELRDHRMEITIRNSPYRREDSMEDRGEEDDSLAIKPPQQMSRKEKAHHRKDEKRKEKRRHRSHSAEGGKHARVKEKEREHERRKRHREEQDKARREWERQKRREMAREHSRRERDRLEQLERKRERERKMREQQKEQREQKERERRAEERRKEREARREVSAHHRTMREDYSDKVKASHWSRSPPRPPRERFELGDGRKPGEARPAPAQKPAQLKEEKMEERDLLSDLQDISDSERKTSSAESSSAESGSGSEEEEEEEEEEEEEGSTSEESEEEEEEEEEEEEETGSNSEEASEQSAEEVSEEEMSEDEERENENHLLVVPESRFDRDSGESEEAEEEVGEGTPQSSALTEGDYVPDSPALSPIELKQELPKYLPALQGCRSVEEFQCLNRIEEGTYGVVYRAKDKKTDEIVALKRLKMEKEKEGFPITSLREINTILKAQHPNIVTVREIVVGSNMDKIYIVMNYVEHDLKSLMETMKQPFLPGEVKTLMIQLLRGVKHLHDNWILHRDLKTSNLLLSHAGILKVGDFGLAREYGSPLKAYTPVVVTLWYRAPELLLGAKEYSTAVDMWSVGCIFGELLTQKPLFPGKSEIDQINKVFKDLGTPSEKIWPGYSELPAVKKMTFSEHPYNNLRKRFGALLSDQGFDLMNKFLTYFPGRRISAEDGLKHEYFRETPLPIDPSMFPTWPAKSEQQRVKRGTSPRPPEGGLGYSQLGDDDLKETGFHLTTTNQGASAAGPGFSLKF
UniProt P06493, whole entry, looked up: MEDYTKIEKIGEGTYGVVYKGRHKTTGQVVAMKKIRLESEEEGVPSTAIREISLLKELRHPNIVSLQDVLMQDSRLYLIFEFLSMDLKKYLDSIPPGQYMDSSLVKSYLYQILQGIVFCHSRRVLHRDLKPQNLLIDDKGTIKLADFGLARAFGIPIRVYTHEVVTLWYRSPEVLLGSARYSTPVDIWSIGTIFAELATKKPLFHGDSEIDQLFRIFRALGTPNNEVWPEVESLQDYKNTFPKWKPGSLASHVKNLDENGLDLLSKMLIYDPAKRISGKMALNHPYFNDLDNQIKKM
UniProt Q69YH5: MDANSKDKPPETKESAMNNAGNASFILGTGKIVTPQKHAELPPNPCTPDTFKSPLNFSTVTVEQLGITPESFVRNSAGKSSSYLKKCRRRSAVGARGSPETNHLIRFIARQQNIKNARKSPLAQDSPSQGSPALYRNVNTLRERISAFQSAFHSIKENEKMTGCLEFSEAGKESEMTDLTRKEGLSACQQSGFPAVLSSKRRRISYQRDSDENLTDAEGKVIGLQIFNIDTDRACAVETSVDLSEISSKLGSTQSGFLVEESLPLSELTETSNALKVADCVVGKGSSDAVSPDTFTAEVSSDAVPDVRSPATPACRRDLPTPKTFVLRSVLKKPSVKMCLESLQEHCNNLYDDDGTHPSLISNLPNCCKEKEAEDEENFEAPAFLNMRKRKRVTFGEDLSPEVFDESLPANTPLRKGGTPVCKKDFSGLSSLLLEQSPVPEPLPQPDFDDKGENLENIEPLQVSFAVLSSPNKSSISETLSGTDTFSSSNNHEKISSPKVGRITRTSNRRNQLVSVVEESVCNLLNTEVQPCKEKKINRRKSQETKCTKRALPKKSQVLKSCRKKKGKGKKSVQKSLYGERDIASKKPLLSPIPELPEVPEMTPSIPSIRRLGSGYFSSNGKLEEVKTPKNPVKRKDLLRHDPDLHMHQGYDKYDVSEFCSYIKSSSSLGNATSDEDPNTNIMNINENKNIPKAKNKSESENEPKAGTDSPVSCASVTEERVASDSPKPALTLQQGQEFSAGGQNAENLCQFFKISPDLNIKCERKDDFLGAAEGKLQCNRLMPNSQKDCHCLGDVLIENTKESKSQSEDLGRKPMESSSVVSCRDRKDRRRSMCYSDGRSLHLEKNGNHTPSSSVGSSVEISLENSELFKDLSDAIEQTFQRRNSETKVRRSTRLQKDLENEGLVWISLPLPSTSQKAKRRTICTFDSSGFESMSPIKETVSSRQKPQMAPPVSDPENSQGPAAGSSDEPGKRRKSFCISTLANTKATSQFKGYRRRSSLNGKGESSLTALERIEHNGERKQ
UniProt O94986: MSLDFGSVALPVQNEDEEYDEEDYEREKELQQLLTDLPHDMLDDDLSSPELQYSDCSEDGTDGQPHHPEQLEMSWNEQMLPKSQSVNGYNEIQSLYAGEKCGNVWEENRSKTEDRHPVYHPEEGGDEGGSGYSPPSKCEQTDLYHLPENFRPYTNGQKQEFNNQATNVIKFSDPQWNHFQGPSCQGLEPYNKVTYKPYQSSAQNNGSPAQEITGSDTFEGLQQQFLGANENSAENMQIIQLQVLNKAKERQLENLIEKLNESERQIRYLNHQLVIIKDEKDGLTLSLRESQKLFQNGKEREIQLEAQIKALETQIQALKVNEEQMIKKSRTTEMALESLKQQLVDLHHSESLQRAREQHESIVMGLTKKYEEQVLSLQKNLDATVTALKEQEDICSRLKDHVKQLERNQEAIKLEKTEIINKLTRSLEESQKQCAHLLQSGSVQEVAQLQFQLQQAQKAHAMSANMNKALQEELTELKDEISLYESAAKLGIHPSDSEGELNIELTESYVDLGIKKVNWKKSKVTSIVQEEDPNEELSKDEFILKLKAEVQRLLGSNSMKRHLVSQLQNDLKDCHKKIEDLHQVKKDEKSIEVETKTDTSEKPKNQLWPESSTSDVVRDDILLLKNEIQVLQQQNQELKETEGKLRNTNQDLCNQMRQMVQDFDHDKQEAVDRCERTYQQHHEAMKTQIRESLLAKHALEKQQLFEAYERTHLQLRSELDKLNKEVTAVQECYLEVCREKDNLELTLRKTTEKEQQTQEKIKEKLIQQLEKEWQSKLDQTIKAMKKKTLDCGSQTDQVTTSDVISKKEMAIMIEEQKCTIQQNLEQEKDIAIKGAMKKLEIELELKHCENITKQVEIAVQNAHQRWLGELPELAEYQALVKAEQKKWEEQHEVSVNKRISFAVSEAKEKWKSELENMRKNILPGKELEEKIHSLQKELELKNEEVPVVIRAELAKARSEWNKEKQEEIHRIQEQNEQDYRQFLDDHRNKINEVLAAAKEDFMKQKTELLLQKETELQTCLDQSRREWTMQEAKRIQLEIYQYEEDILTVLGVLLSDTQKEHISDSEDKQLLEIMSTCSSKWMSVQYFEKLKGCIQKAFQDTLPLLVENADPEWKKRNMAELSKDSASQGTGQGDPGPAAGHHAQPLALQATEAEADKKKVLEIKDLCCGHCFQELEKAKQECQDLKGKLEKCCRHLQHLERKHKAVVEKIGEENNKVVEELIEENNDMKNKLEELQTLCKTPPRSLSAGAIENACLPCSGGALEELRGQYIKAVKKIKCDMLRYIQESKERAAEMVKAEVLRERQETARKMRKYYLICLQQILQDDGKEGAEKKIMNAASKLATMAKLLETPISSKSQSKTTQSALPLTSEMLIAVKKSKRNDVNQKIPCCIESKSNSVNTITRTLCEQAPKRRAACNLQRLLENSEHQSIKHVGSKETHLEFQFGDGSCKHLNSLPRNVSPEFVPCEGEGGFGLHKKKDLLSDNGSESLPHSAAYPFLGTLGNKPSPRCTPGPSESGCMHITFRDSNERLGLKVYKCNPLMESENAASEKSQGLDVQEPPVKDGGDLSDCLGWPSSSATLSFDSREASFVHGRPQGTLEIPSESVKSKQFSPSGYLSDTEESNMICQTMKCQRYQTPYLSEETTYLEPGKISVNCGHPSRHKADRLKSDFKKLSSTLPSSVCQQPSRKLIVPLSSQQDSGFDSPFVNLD
UniProt Q71F23: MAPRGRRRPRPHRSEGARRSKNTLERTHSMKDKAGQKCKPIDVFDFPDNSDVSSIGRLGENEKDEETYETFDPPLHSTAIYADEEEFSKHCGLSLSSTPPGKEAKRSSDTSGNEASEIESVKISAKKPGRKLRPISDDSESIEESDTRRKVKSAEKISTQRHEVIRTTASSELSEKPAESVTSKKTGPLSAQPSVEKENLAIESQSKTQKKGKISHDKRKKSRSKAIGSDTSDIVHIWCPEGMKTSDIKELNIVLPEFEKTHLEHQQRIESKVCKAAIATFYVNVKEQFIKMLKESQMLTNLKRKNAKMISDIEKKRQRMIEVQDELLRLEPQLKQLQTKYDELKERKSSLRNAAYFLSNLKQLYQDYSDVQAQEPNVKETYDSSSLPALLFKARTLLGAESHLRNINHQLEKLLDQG
UniProt Q96HQ2: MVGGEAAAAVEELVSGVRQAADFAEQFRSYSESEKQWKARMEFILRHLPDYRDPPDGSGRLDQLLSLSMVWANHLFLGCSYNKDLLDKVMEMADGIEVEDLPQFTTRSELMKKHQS
UniProt Q6P2H3: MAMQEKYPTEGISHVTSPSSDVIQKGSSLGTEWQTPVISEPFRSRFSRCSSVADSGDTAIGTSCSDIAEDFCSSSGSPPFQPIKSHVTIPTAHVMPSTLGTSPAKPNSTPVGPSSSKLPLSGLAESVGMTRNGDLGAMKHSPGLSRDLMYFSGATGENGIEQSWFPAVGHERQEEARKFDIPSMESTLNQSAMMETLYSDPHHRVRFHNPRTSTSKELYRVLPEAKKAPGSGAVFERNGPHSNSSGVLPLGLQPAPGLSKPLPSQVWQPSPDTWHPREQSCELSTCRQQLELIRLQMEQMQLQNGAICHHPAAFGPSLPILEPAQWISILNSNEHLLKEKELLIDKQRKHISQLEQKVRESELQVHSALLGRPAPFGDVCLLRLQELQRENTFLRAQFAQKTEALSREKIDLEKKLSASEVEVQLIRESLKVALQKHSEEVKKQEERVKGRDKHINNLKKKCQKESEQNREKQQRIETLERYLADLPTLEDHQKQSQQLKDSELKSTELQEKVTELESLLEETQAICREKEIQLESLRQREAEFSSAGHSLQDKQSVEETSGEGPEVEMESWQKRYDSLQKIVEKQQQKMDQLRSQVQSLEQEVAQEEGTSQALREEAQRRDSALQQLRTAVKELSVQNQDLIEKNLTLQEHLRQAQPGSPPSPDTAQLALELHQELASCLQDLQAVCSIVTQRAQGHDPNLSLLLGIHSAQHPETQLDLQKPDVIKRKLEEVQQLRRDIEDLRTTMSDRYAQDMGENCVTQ

[2] = compound: C[C@@H]1COCCN1C2=NC(=NC(=C2)C3(CC3)S(=O)(=O)C)C4=C5C=CNC5=CC=C4
In short: as §1

[3] = compound: C[C@H](C1=CC=C(C=C1)C(=O)NC2=C3C=CNC3=NC=C2)N
In short: as §1

duvelisib = compound: C[C@H](Nc1ncnc2nc[nH]c12)c1cc2cccc(Cl)c2c(=O)n1-c1ccccc1 [duvelisib]
In short: as §1

gandotinib = compound: Cc1cc(Nc2cc(CN3CCOCC3)c3nc(C)c(Cc4ccc(Cl)cc4F)n3n2)n[nH]1 [gandotinib]
In short: as §1

tozasertib = compound: Cc1cc(Nc2cc(N3CCN(C)CC3)nc(Sc3ccc(NC(=O)C4CC4)cc3)n2)n[nH]1 [tozasertib]
In short: as §1

[4] = compound: Cc1cc(SCc2sc(-c3ccc(C(F)(F)F)cc3)nc2C)ccc1OCC(=O)O
In short: as §1

bafetinib = compound: Cc1ccc(NC(=O)c2ccc(CN3CC[C@H](N(C)C)C3)c(C(F)(F)F)c2)cc1Nc1nccc(-c2cncnc2)n1 [bafetinib]
In short: as §1

[5] = compound: Cc1cccc(CC(=O)N2CCc3c2ccc(-c2cn(C)c4ncnc(N)c24)c3F)n1
In short: as §1

nilotinib = compound: Cc1cn(-c2cc(NC(=O)c3ccc(C)c(Nc4nccc(-c5cccnc5)n4)c3)cc(C(F)(F)F)c2)cn1 [nilotinib]
In short: as §1

[6] = compound: Cc1nc(Nc2n[nH]c3c2CN(C(=O)N[C@H](CN(C)C)c2ccccc2)C3(C)C)c2sccc2n1
In short: as §1

dasatinib = compound: Cc1nc(Nc2ncc(C(=O)Nc3c(C)cccc3Cl)s2)cc(N2CCN(CCO)CC2)n1 [dasatinib]
In short: as §1

[7] = compound: Cc1ncc(-c2ccnc(Nc3ccc(S(C)(=O)=O)cc3)n2)n1C(C)C
In short: as §1

[8] = compound: Cn1cc(-c2ccc3c(c2)CCN3C(=O)Cc2cccc(C(F)(F)F)c2)c2c(N)ncnc21
In short: as §1

tipifarnib = compound: Cn1cncc1[C@@](N)(c1ccc(Cl)cc1)c1ccc2c(c1)c(-c1cccc(Cl)c1)cc(=O)n2C [tipifarnib]
In short: as §1

mubritinib = compound: FC(F)(F)c1ccc(/C=C/c2nc(COc3ccc(CCCCn4ccnn4)cc3)co2)cc1 [mubritinib]
In short: as §1

crizotinib = compound: C[C@@H](Oc1cc(-c2cnn(C3CCNCC3)c2)cnc1N)c1c(Cl)ccc(F)c1Cl [crizotinib]
In short: as §1

doramapimod = compound: Cc1ccc(-n2nc(C(C)(C)C)cc2NC(=O)Nc2ccc(OCCN3CCOCC3)c3ccccc23)cc1 [doramapimod]
In short: as §1

ispinesib = compound: Cc1ccc(C(=O)N(CCCN)[C@@H](c2nc3cc(Cl)ccc3c(=O)n2Cc2ccccc2)C(C)C)cc1 [ispinesib]
In short: as §1

[9] = compound: Cn1cc(-c2ccc3nnc(C(F)(F)c4ccc5ncccc5c4)n3n2)cn1
In short: as §1

Target	log2 fold change [1]	log2 fold change [2]	log2 fold change [3]	log2 fold change (duvelisib)	log2 fold change (gandotinib)	log2 fold change (tozasertib)	log2 fold change [4]	log2 fold change (bafetinib)	log2 fold change [5]	log2 fold change (nilotinib)	log2 fold change [6]	log2 fold change (dasatinib)	log2 fold change [7]	log2 fold change [8]	log2 fold change (tipifarnib)	log2 fold change (mubritinib)	log2 fold change (crizotinib)	log2 fold change (doramapimod)	log2 fold change (ispinesib)	log2 fold change [9]
CERS6 isoform 2 (UniProt Q6ZMG9)	inactive: -0.051	inactive: 0.045	inactive: -0.24	inactive: 0	inactive: -0.011	inactive: -0.029	inactive: 0.048	inactive: 0.011	inactive: 0.079	inactive: -0.122	inactive: -0.029	inactive: 0.006	inactive: 0.026	inactive: 0.085	inactive: -0.037	inactive: -0.017				
CEP170B (UniProt Q9Y4F5)	inactive: 0.009	inactive: -0.12		inactive: -0.084	inactive: 0.263		inactive: -0.021	inactive: 0.01	inactive: -0.077			inactive: -0.001				inactive: -0.104	inactive: -0.199	inactive: 0.268	inactive: -0.016	inactive: 0.064
CDKN2C (UniProt P42773)	inactive: 0.062		inactive: -0.02	inactive: 0.215	inactive: 0.01	inactive: -0.03	inactive: 0.291	inactive: -0.02	inactive: -0.105	inactive: 0.024	inactive: -0.006	inactive: 0.051	inactive: -0.021	inactive: 0.122	inactive: 0.006	inactive: 0.023	inactive: 0.12	inactive: 0.032	inactive: 0.274	inactive: 0.252
CDK2 (UniProt P24941)	inactive: 0.003	inactive: 0.055		inactive: 0.013	inactive: -0.002	inactive: -0.051	inactive: 0.009	inactive: -0.038	inactive: -0.019	inactive: -0.006		inactive: 0.052		inactive: 0	inactive: 0	inactive: 0.039	inactive: -0.018	inactive: -0.048	inactive: 0.002	inactive: -0.002
CDC42EP4 (UniProt Q9H3Q1)	inactive: 0.047	inactive: -0.013	inactive: 0.009	inactive: -0.058	inactive: -0.02	inactive: -0.115	inactive: 0.056	inactive: -0.02	inactive: 0.021	inactive: -0.01	inactive: -0.11	inactive: 0.013	inactive: -0.079	inactive: -0.045	inactive: 0.008	inactive: 0.056			inactive: -0.016	inactive: -0.016
CDKN1C (UniProt P49918)	inactive: 0.043	inactive: -0.014		inactive: -0.028	inactive: -0.186		inactive: -0.014	inactive: 0.006	inactive: -0.172			inactive: 0.162				inactive: 0.356			inactive: 0.192	inactive: 0.066
CDK4 (UniProt P11802)	inactive: 0.108	inactive: -0.152	inactive: 0.377				inactive: 0.021	inactive: 0.022		inactive: -0.121	inactive: -0.042	inactive: -0.056	inactive: 0.031	inactive: -0.084	inactive: 0.046	inactive: 0.054	inactive: -0.108	inactive: 0.079	inactive: 0.094	inactive: -0.117
CDK19 (UniProt Q9BWU1)	inactive: 0.042	inactive: 0.03	inactive: 0.401		inactive: -0.051		inactive: 0.034		inactive: -0.014	inactive: -0.266	inactive: 0.297	inactive: 0.101	inactive: 0.338	inactive: -0.01	inactive: -0.045	inactive: 0.112			inactive: 0.291	inactive: -0.054
CDK11B (UniProt P21127)	inactive: 0.025	inactive: 0.052	inactive: 0.166		inactive: 0.105		inactive: 0.007	inactive: 0.027	inactive: -0.009	inactive: 0.106	inactive: -0.038	inactive: 0.014	inactive: -0.036	inactive: 0.007	inactive: 0.104	inactive: 0.085	active: 1.24	inactive: 0	inactive: 0.022	inactive: 0.228
CDK1 (UniProt P06493)	inactive: 0.005	inactive: -0.005	inactive: -0.019		inactive: -0.171		inactive: 0	inactive: 0.002	inactive: -0.022	inactive: 0.022	inactive: -0.196	inactive: -0.092	inactive: -0.199	inactive: -0.067	inactive: -0.019	inactive: 0.083	inactive: -0.128	inactive: -0.031	inactive: 0.033	inactive: -0.023
CDK17 isoform 2 (UniProt Q00537)	inactive: 0.087	inactive: -0.035	inactive: 0.076		inactive: 0.057		inactive: 0.126	inactive: 0.117	inactive: 0.039			inactive: -0.171		inactive: -0.07	inactive: 0.037	inactive: -0.04	inactive: -0.082	inactive: 0.028		
CDCA2 (UniProt Q69YH5)	inactive: 0.161	inactive: 0.041	inactive: -0.021		inactive: 0.098				inactive: -0.065	inactive: 0.164	inactive: -0.114		inactive: 0.042	inactive: 0.159	inactive: 0.182	inactive: -0.256	inactive: 0.025	inactive: 0.088	inactive: -0.04	inactive: -0.215
CDC5L (UniProt Q99459)	inactive: 0.05		inactive: 0.39	inactive: -0.062	inactive: 0.079	inactive: 0.115	inactive: -0.016		inactive: -0.068			inactive: -0.041		inactive: -0.201		inactive: -0.166	inactive: -0.065	inactive: 0.152	inactive: -0.272	inactive: -0.086
CEP152 (UniProt O94986)	inactive: 0.06				inactive: 0.105	inactive: -0.152		inactive: -0.066	inactive: -0.178	inactive: -0.132	inactive: 0.195		inactive: -0.007		inactive: -0.012	inactive: -0.062	inactive: -0.125	inactive: 0.051	inactive: -0.3	inactive: 0.17
CENPU (UniProt Q71F23)	inactive: -0.101	inactive: -0.425		inactive: -0.17		inactive: -0.158	inactive: -0.114					inactive: 0.138			inactive: 0.075		inactive: -0.041	inactive: 0.245		
CDKN2AIPNL (UniProt Q96HQ2)										inactive: 0.013	inactive: 0.036		inactive: -0.057							
CEP85 (UniProt Q6P2H3)				inactive: 0.045	inactive: 0.156		inactive: -0.183	inactive: 0.055	inactive: 0.044			inactive: 0.145			inactive: 0.082	inactive: -0.141			inactive: -0.244	inactive: -0.004

Shown as a markdown table: entries from further up.

| Target | log2 fold change [1] | log2 fold change [2] | log2 fold change [3] | log2 fold change (duvelisib) | log2 fold change (gandotinib) | log2 fold change (tozasertib) | log2 fold change [4] | log2 fold change (bafetinib) | log2 fold change [5] | log2 fold change (nilotinib) | log2 fold change [6] | log2 fold change (dasatinib) | log2 fold change [7] | log2 fold change [8] | log2 fold change (tipifarnib) | log2 fold change (mubritinib) | log2 fold change (crizotinib) | log2 fold change (doramapimod) | log2 fold change (ispinesib) | log2 fold change [9] |
| --- | --- | --- | --- | --- | --- | --- | --- | --- | --- | --- | --- | --- | --- | --- | --- | --- | --- | --- | --- | --- |
| CDKN2AIPNL (UniProt Q96HQ2) |  |  |  |  |  |  |  |  |  | inactive: 0.013 | inactive: 0.036 |  | inactive: -0.057 |  |  |  |  |  |  |  |
| CEP85 (UniProt Q6P2H3) |  |  |  | inactive: 0.045 | inactive: 0.156 |  | inactive: -0.183 | inactive: 0.055 | inactive: 0.044 |  |  | inactive: 0.145 |  |  | inactive: 0.082 | inactive: -0.141 |  |  | inactive: -0.244 | inactive: -0.004 |
